From article PMC7819943, “Rice protein-binding microarrays: a tool to detect cis-acting elements near promoter regions in rice” come the findings set out here.

This is one part of the list.

The target of this experiment is T1, OsSMF1 (Oryza sativa, UniProt Q6ZLB0 1-436).
T1 sequence: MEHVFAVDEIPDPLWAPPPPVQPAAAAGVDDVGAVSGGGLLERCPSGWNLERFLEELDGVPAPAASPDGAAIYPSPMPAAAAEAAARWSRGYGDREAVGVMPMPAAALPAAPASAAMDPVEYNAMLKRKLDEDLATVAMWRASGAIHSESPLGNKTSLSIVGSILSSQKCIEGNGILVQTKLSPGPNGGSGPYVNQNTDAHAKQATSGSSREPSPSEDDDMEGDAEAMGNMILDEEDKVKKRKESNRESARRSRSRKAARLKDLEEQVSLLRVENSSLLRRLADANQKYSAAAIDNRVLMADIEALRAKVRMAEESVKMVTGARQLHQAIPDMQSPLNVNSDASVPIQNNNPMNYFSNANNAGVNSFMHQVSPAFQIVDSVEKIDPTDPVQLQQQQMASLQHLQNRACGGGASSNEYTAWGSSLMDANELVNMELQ
Nature of the experiment: protein-binding microarray (RPBM); PBS, 2% BSA, 51.3 ng/ul salmon testes DNA, 50 uM zinc acetate, 200 nM TF, 25 C, 1 h; high values mean tight binding. The following applies: protein: recombinant; tags: N-terminal polyhistidine and DsRed monomer fusion (pET32a); chain copies: 2; label: CyDye5-dUTP incorporated in the synthesized complementary strand; 3' TTTTT single-stranded linker to array surface; dsDNA, one strand shown. Put shortly:
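An Axon 4000B scanner gave the binding signal as per-feature fluorescence intensity in arbitrary units. This followed washing of a custom Agilent array that had been incubated for 1 h at 25 °C with 200 nM protein in PBS, 2% BSA, salmon testes DNA and 50 µM zinc acetate. The proteins were transcription factors fused at the N-terminus to polyhistidine and DsRed, expressed in E. coli BL21-CodonPlus and purified on Ni–NTA.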
Turning to “TTCCATCATATCAAAACTTTCCTACACACATAAACTTTTACGGAGTCACCTAGTGCAG”, the binding signal was 8300 fluorescence intensity (a.u.).

For “GCGTGGCCCCACCGCTCAGTGACACACTCCACCCACACCCCGGAGTCACCTAGTGCAG”, the binding signal is 6410 fluorescence intensity (a.u.).

Consider “GTGCGCCATATCGATCACGTATACGTACGCGCGCGTGTTCCGGAGTCACCTAGTGCAG”, for which the binding signal was 3340 fluorescence intensity (a.u.).

For “CATAAACTCATTTTCATCCATCACCCGTCATCCCACAGCTCGGAGTCACCTAGTGCAG”, the binding signal is 4960 fluorescence intensity (a.u.).

Regarding “ACCGCTTGCCGAACGTACCACACAGCCAATTCATCGAACACGGAGTCACCTAGTGCAG”, the binding signal is 3800 fluorescence intensity (a.u.).

Turning to “TCCTTAAACCAGAGTGGTGACCTGGTCGAGGCCAGCCCGTCGGAGTCACCTAGTGCAG”, the binding signal is 3720 fluorescence intensity (a.u.).

“CTTAATCGGTTAGGTTACTTGGTGTAATCAGCCTACCTGGCGGAGTCACCTAGTGCAG”: the binding signal is 4030 fluorescence intensity (a.u.).

Take “GCAACTTCTACGTACTCTGTAAGGTAGCCAGCTGCTCGATCGGAGTCACCTAGTGCAG”: the binding signal is 3200 fluorescence intensity (a.u.).

For the sequence “TGCATGTGCACCTGACTGTTTGGGCTTAGTTGCTACAATGCGGAGTCACCTAGTGCAG”, the binding signal was 3660 fluorescence intensity (a.u.).

In the case of “TACCTGAGGAGCACTCCATCGGTCCCAAAATAAATTAACACGGAGTCACCTAGTGCAG”, the binding signal was 27900 fluorescence intensity (a.u.).

In the case of “TTGTAAAGGTGTTGATGTACCCCATGATGACATGGAGCTCCGGAGTCACCTAGTGCAG”, the binding signal is 6450 fluorescence intensity (a.u.).

As for “AGGTTGTGCTGTGATGCTGGAGGGGAGTTGATTACAGGGACGGAGTCACCTAGTGCAG”, the binding signal was 4070 fluorescence intensity (a.u.).

On to “TAATCCATGGCTAGATAACCGATGTCGTCACCAAACAGATCGGAGTCACCTAGTGCAG”, for which the binding signal was 4980 fluorescence intensity (a.u.).

As for “CGCTTCCTCTGCATGCAACACTATTTCCAGCTCACCTCCTCGGAGTCACCTAGTGCAG”, the binding signal is 4960 fluorescence intensity (a.u.).

On to “TCTTGCCTTCTCTCCCTGTGGGCACGCCGCCACCGACACCCGGAGTCACCTAGTGCAG”, for which the binding signal was 5660 fluorescence intensity (a.u.).

For the sequence “ACAAGGCCCACCTCAAGACCTGCGGCACCCGCGGCCACTCCGGAGTCACCTAGTGCAG”, the binding signal was 4090 fluorescence intensity (a.u.).

Regarding “CAGGAGGAATCTATAATTTGTTTTGTTATTAGTCTACGTTCGGAGTCACCTAGTGCAG”, the binding signal is 4730 fluorescence intensity (a.u.).

Turning to “GGAAATAAACACGTCATGGTGTATTCCTGGCGTGGTTGAGCGGAGTCACCTAGTGCAG”, the binding signal was 12800 fluorescence intensity (a.u.).

As for “ATGTATATGACCGTCCACGTATATCGCCTAAGCAGTAAAACGGAGTCACCTAGTGCAG”, the binding signal was 4530 fluorescence intensity (a.u.).

As for “CGCCGTCCACTCCATCCATCGCGTCACCATCCCTTCGCCGCGGAGTCACCTAGTGCAG”, the binding signal was 8260 fluorescence intensity (a.u.).

In the case of “CTCGGCTGTGACGACGCACACACCGTCCGCAACCTCGCCCCGGAGTCACCTAGTGCAG”, the binding signal is 4320 fluorescence intensity (a.u.).

As to “ATTTCTAGTCATGCCCGATAACCACTCCGGCACGACCACGCGGAGTCACCTAGTGCAG”, the binding signal was 3410 fluorescence intensity (a.u.).

Regarding “CTCTCTCTCTCTCTGCAGCTAGGCCATATGCATCTCTCCTCGGAGTCACCTAGTGCAG”, the binding signal is 3590 fluorescence intensity (a.u.).

For the sequence “CCAGGTCAACATTGCCACGTGTGCGGCCACGTCAGCGAAACGGAGTCACCTAGTGCAG”, the binding signal is 33400 fluorescence intensity (a.u.).

For the sequence “TGGTAAAATATGGATGTGGCATAGATGCTTACGATGTCCTCGGAGTCACCTAGTGCAG”, the binding signal was 38600 fluorescence intensity (a.u.).

As for “GCGAGATTCATTGGGTACCCGCCGGATATACCTGCGTCCGCGGAGTCACCTAGTGCAG”, the binding signal is 3390 fluorescence intensity (a.u.).

Take “AATCACTTTTGCTTGGAAGATTAATCTACTAGAGTTAGTGCGGAGTCACCTAGTGCAG”: the binding signal was 3920 fluorescence intensity (a.u.).

As for “ATCAAAATGGCAACAAAAGGGAGTCCAAAGTGAAAATTTTCGGAGTCACCTAGTGCAG”, the binding signal was 36100 fluorescence intensity (a.u.).

Consider “AGGCAAGATGAAATATTTTAGTTTAGTTTAGTTGATCTTTCGGAGTCACCTAGTGCAG”, for which the binding signal was 28300 fluorescence intensity (a.u.).

For the sequence “CAGTGGCTTGCCACTGGGGTCCTCGCGTGTCGCCCAGGCGCGGAGTCACCTAGTGCAG”, the binding signal was 3180 fluorescence intensity (a.u.).

With “TTGGGTTGGGTTAAGGCAGCCTCGGTTCCACGTACGCCGCCGGAGTCACCTAGTGCAG”, the binding signal was 4850 fluorescence intensity (a.u.).

Consider “ACATCTAAAAGTAACTTGAGTTTTCTAAGCAACACATAAGCGGAGTCACCTAGTGCAG”, for which the binding signal is 24700 fluorescence intensity (a.u.).

For the sequence “TCCGAAGTCCATGTCGCCATGACGTCACCACATGGCACGGCGGAGTCACCTAGTGCAG”, the binding signal was 11100 fluorescence intensity (a.u.).

“CCAAAACGACCACGAGCACGCGCCACCAACACCGGCCGCGCGGAGTCACCTAGTGCAG”: the binding signal is 3460 fluorescence intensity (a.u.).

With “GCGTCATAGAAGGCAAGAGGTTCTTGCTTGTGCTTGATGACGGAGTCACCTAGTGCAG”, the binding signal is 3780 fluorescence intensity (a.u.).

Take “ATGTATGGGGTGTGTGTGTGTGTATACTGCATAGTGATATCGGAGTCACCTAGTGCAG”: the binding signal was 4380 fluorescence intensity (a.u.).

Turning to “GGTGGGCACGTGCAGTCTGCGCTGCGTCAGCTCTCGCCGCCGGAGTCACCTAGTGCAG”, the binding signal was 10800 fluorescence intensity (a.u.).

Consider “GGTCACTCTTCCACCTGCACGACATCGACCTCCACGCCTGCGGAGTCACCTAGTGCAG”, for which the binding signal is 3900 fluorescence intensity (a.u.).

Regarding “AATCTTGTTGGATGTTGAATTTTCAGGCGGGGTGACGCAGCGGAGTCACCTAGTGCAG”, the binding signal was 4950 fluorescence intensity (a.u.).

For “TGAACCACGACCAGGCAGATTGTTTATGTCACATCGAAGACGGAGTCACCTAGTGCAG”, the binding signal was 3240 fluorescence intensity (a.u.).

With “ATCGATCGATCTCCACGGTGGCGGCTGGCTGGTCGGCGGACGGAGTCACCTAGTGCAG”, the binding signal was 3650 fluorescence intensity (a.u.).

Turning to “GTGCCGGACGTGTCCACGAGCACCGCCACGTCGCCGATGTCGGAGTCACCTAGTGCAG”, the binding signal is 12100 fluorescence intensity (a.u.).
